# Data as given in the supplement of paper PMC8326762, “A Small Molecule Inhibitor of Pex3–Pex19 Interaction Disrupts Glycosome Biogenesis and Causes Lethality in Trypanosoma brucei” (Frontiers in Cell and Developmental Biology, 2021).
# Structures can show the parent of a compound that is named as a salt. The list shows a part of the results. This is a noisy data set.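 Yeast growth was measured as optical density at 600 nm. Two-hybrid strains grew without histidine, so growth depended on Pex3–Pex19 binding. A compound was trypanosome-selective if it reduced growth of the trypanosome-pair strain by over 65% and of the human-pair strain by under 65%.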
# Tests used:
# [1] = tested on: Saccharomyces cerevisiae HF7c pdr5Δ; assay: general growth inhibition of yeast HF7c pdr5Δ in -Leu -Trp medium, relative to DMSO; higher = stronger general growth inhibition; details: 100 µM; 24 h
# [2] = tested on: human PEX3-PEX19 interaction (yeast two-hybrid); assay: growth inhibition of yeast two-hybrid strain reporting HsPex3-HsPex19 interaction, relative to DMSO; higher = stronger inhibition of human Pex3-Pex19 interaction / growth; details: 100 µM; 24 h; 3-aminotriazole 10 mM
# [3] = tested on: T. brucei Pex3-Pex19 interaction (yeast two-hybrid); assay: growth inhibition of yeast two-hybrid strain reporting TbPex3-TbPex19 interaction, relative to DMSO; higher = stronger inhibition of T. brucei Pex3-Pex19 interaction / growth; details: 100 µM; 24 h
compound,measurement,setting,value
O=C1CCCC(=O)C1C(=O)c1ccc(C(F)(F)F)cc1[N+](=O)[O-] [Nitisinone],general growth inhibition,[1],40.4%
same,growth inhibition,[2],45.8%
same,growth inhibition,[3],32.9%
OCC1OC(n2cnc3c(NC4CCCCC4)ncnc32)C(O)C1O (centres undefined) [N6-Cyclohexyladenosine],general growth inhibition,[1],26.6%
same,growth inhibition,[2],29.1%
same,growth inhibition,[3],54%
O=C(O)CN(CCN(CC(=O)O)CC(=O)O)CCN(CC(=O)O)CC(=O)O [Diethylenetriaminepentaacetic acid],general growth inhibition,[1],46.3%
same,growth inhibition,[2],38.3%
same,growth inhibition,[3],60.4%
CC(C[N+](C)(C)C)OC(N)=O (centres undefined) [Bethanechol chloride],general growth inhibition,[1],31%
same,growth inhibition,[2],37.3%
same,growth inhibition,[3],53.9%
O=C(O)C1=CC(=C(c2ccc(O)c(C(=O)O)c2)c2ccc(O)c(C(=O)O)c2)C=CC1=O [Aurintricarboxylic acid],general growth inhibition,[1],59%
same,growth inhibition,[2],50.4%
same,growth inhibition,[3],61.2%
"c1ccc(C2CN3CCSC3=N2)cc1 (single isomer, unassigned; (-)) [(-)-Tetramisole hydrochloride]",general growth inhibition,[1],46.8%
same,growth inhibition,[2],47.1%
same,growth inhibition,[3],63.3%
COC(=O)C(C)(N)Cc1ccc(O)cc1 (racemic) [alpha-Methyl-DL-tyrosine methyl ester hydrochloride],general growth inhibition,[1],41.6%
same,growth inhibition,[2],49%
same,growth inhibition,[3],60.5%
O=C(O[C@@H]1C[C@@H]2C[C@H]3C[C@H](C1)N2CC3=O)c1c[nH]c2ccccc12 [Dolasetron mesylate hydrate],general growth inhibition,[1],41.7%
same,growth inhibition,[2],50.4%
same,growth inhibition,[3],63.7%
CCN(CC)CC(=O)Nc1c(C)cccc1C [Lidocaine hydrochloride],general growth inhibition,[1],40.4%
same,growth inhibition,[2],18%
same,growth inhibition,[3],71.8%
CCNC(=O)[C@H]1O[C@@H](n2cnc3c(N)nc(NCCc4ccc(CCC(=O)O)cc4)nc32)[C@H](O)[C@@H]1O,general growth inhibition,[1],14.9%
same,growth inhibition,[2],13.5%
same,growth inhibition,[3],31.7%
Nc1nc(OCC2CCCCC2)c2[nH]cnc2n1,general growth inhibition,[1],42.3%
same,growth inhibition,[2],50%
same,growth inhibition,[3],67.3%
CN/C(=N\CCSCc1nc[nH]c1C)NC#N [Cimetidine],general growth inhibition,[1],45.9%
same,growth inhibition,[2],39.2%
same,growth inhibition,[3],49.9%
CC1=C(CC(=O)O)c2cc(F)ccc2/C1=C\c1ccc(S(C)(=O)=O)cc1 [Sulindac sulfone],general growth inhibition,[1],14.6%
same,growth inhibition,[2],24.3%
same,growth inhibition,[3],40.4%
"CCCn1c(=O)c2c(ncn2C)n(CCC)c1=O [1,3-Dipropyl-7-methylxanthine]",general growth inhibition,[1],30.8%
same,growth inhibition,[2],46.9%
same,growth inhibition,[3],54.9%
Brc1ccc([C@H]2CN3CCSC3=N2)cc1 [S(-)-p-Bromotetramisole oxalate],general growth inhibition,[1],36%
same,growth inhibition,[2],33.5%
same,growth inhibition,[3],54.9%
CNCCCC12CCC(c3ccccc31)c1ccccc12 [Maprotiline hydrochloride],general growth inhibition,[1],31.2%
same,growth inhibition,[2],31.5%
same,growth inhibition,[3],50.6%
"N[C@@H](Cc1ccc(O)c(O)c1)C(=O)O [L-3,4-Dihydroxyphenylalanine]",general growth inhibition,[1],35.2%
same,growth inhibition,[2],39.4%
same,growth inhibition,[3],60%
"CC(=O)/C(C)=N/O [2,3-Butanedione monoxime]",general growth inhibition,[1],10.8%
same,growth inhibition,[2],2.22%
same,growth inhibition,[3],25.5%
CN(CCOc1ccc(NS(C)(=O)=O)cc1)CCc1ccc(NS(C)(=O)=O)cc1 [Dofetilide],general growth inhibition,[1],23.5%
same,growth inhibition,[2],34.9%
same,growth inhibition,[3],51%
C[C@H](NC(=O)/C(C#N)=C/c1ccc(O)c(O)c1)c1ccccc1 [Tyrphostin AG 835],general growth inhibition,[1],7.12%
same,growth inhibition,[2],5.16%
same,growth inhibition,[3],38.1%
OC[C@H]1O[C@@H](n2cnc3c(NC4CCCC4)ncnc32)[C@H](O)[C@@H]1O [N6-Cyclopentyladenosine],general growth inhibition,[1],34.9%
same,growth inhibition,[2],36.4%
same,growth inhibition,[3],56.6%
CCCCCN(CCCCC)C(=O)C(CCC(=O)O)NC(=O)c1ccc(Cl)c(Cl)c1 (centres undefined) [Lorglumide sodium],general growth inhibition,[1],33.2%
same,growth inhibition,[2],18.2%
same,growth inhibition,[3],26%
COc1cc(OC)c(C=C2C(=O)Nc3ccccc32)c(OC)c1,general growth inhibition,[1],60.5%
same,growth inhibition,[2],30.3%
same,growth inhibition,[3],61.3%
Clc1ccc(N2CCN(Cc3cc4ccccn4n3)CC2)cc1,general growth inhibition,[1],50.3%
same,growth inhibition,[2],35.9%
same,growth inhibition,[3],48.3%
CN(C)CCc1c[nH]c2ccc(Cn3cncn3)cc12 [Rizatriptan benzoate salt],general growth inhibition,[1],37.3%
same,growth inhibition,[2],33.9%
same,growth inhibition,[3],66.2%
N#CC(=C(/N)Sc1ccccc1N)/C(C#N)=C(/N)Sc1ccccc1N,general growth inhibition,[1],63.9%
same,growth inhibition,[2],46.8%
same,growth inhibition,[3],54%
Nc1nc2c(c(=O)[nH]1)C[C@@H](CCc1ccc(C(=O)N[C@@H](CCC(=O)O)C(=O)O)cc1)CN2 [Lometrexol hydrate],general growth inhibition,[1],39.8%
same,growth inhibition,[2],44.6%
same,growth inhibition,[3],69.1%
CCCCCCCCCCC(C)(C)C(=O)Nc1c(OC)cc(OC)cc1OC,general growth inhibition,[1],47.3%
same,growth inhibition,[2],37.7%
same,growth inhibition,[3],58%

# Exported with bars between the fields: part of the list above
compound | measurement | setting | value
CCNC(=O)[C@H]1O[C@@H](n2cnc3c(N)nc(NCCc4ccc(CCC(=O)O)cc4)nc32)[C@H](O)[C@@H]1O | general growth inhibition | [1] | 14.9%
CN/C(=N\CCSCc1nc[nH]c1C)NC#N [Cimetidine] | growth inhibition | [3] | 49.9%
CC1=C(CC(=O)O)c2cc(F)ccc2/C1=C\c1ccc(S(C)(=O)=O)cc1 [Sulindac sulfone] | general growth inhibition | [1] | 14.6%
CN(CCOc1ccc(NS(C)(=O)=O)cc1)CCc1ccc(NS(C)(=O)=O)cc1 [Dofetilide] | general growth inhibition | [1] | 23.5%
OC[C@H]1O[C@@H](n2cnc3c(NC4CCCC4)ncnc32)[C@H](O)[C@@H]1O [N6-Cyclopentyladenosine] | growth inhibition | [2] | 36.4%
Nc1nc2c(c(=O)[nH]1)C[C@@H](CCc1ccc(C(=O)N[C@@H](CCC(=O)O)C(=O)O)cc1)CN2 [Lometrexol hydrate] | general growth inhibition | [1] | 39.8%
